Microarray screen: hit calls

From ROBIN, a set of small-molecule microarray screens (doi:10.1002/anie.202211358).

Oligonucleotides screened, 5′ to 3′:
T1: PreQ1 riboswitch RNA pseudoknot, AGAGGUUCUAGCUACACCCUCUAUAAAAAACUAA. From B. subtilis. About 24,000 compounds screened, about 170 hits.
T2: SAM-II riboswitch RNA pseudoknot, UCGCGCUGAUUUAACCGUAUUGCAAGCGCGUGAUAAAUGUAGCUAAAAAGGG. About 21,000 compounds screened, about 200 hits.
T3: TPP riboswitch RNA three-way junction, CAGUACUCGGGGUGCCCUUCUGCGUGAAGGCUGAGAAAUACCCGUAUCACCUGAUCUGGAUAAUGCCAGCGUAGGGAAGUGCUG. About 24,000 compounds screened, about 160 hits.

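Compounds were printed on reactive glass slides in duplicate spots, a dye-labelled oligonucleotide was laid over them, and the fluorescence left after washing was read. The data file lists only calls. An earlier report of the laboratory on the PreQ1, TPP and SAM-II riboswitches (doi:10.1038/s41467-019-09493-3) used 1 µM RNA for 2 h and required a mean Z-score above 3 (spot signal-to-noise against the whole library), a score well above that on a control array, and duplicate spots agreeing (coefficient of variation under 100); it then also set aside compounds that hit other targets, which this list keeps. The cut-offs behind this list may differ. These are primary screening calls, not affinities; a compound without a hit may have attached poorly or may still bind in solution.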
“hit” means called a hit, “none” means screened and not called a hit.
Compounds were drawn at random from those tested, without regard to their results.
A dash means that no call is listed here.

SMILES | T1 | T2 | T3
CN(C)c1ccc(CCNC(=O)C2CCCNC2)cc1 (stereo unspecified) | none | none | none
C=CCn1cc(CNC(C)CCc2ccco2)c(C)n1 (stereo unspecified) | none | none | none
CCCCCC(=O)N1CCCCC1 | none | none | none
CCOCCCNCc1ccc(-c2cccc(Cl)c2C)o1 | none | - | none
N#Cc1nc(-c2ccc(S(=O)(=O)N3CCCC3)cc2)oc1NC1CC1 | none | - | none
O=C(c1ccc(CN2CCCCC2)cc1)N1[C@@H]2CC[C@H]1C[C@@H](O)C2 | none | none | none
CN(CCC(C)(C)O)C(=O)c1ccc(N)nc1 | none | none | none
O=C(c1cc(COc2cccc(F)c2)[nH]n1)N1CCOCC1CO (stereo unspecified) | none | none | none
N#Cc1c(-c2cc(F)ccc2F)cc(-c2cc[nH]c2)nc1N | none | none | none
CCOc1ccc(NC(=S)NC(=O)c2ccco2)cc1 | none | none | none
CNC(=O)c1ccccc1Sc1ccc2c(C=Cc3ccccn3)n[nH]c2c1 | none | none | none
CC(NC(=O)c1ccc2[nH]c(CO)nc2c1)C1=CCCCC1 (stereo unspecified) | none | none | none
NC(=O)NN=Cc1ccc([N+](=O)[O-])o1 | none | none | none
NCCO[C@H]1C[C@@H](O)C12CCN(C(=O)c1cccn1C1CC1)CC2 | none | none | none
O=C(NC1CCOCC1)c1ccc(-c2cc(-c3cn[nH]c3-c3ccccn3)ccn2)cc1 | none | none | none
Cc1cccc(-c2nn3c(NCCCN(C)C)cc(C)nc3c2C)c1 | none | - | none
CN1CCc2[nH]cnc2C12CCN(c1cc(N3CCOCC3)nc(N)n1)CC2 | none | none | none
CCOC(=O)c1ccc2nc(C)cc(Nc3ccc(N4CCOCC4)cc3)c2c1 | none | none | none
N#Cc1ccccc1CN1CCC2(CC1)[C@H](O)C[C@@H]2O | none | none | none
CC(C)CCn1c(CNC(=O)C2CNCCO2)nc2cccnc21 (stereo unspecified) | none | none | none
Cc1ccccc1C(=O)Nc1sc2c(c1C(=O)NCCO)CCC(C(C)(C)C)C2 (stereo unspecified) | none | none | none
O=C1NC(=S)S/C1=C\c1ccccc1C(=O)O | none | none | none
Nc1nccc(N2CCC(C3CCN(CCc4ccccc4)C3)CC2)n1 (stereo unspecified) | hit | none | hit
Cc1nnc(NC2=NS(=O)(=O)c3ccccc32)s1 | none | none | none
CC(C)(C(N)=O)c1ccccc1 | none | none | none
C=CCN1CCC(CNCc2c[nH]nc2-c2ccc(F)cc2)C1 (stereo unspecified) | none | none | none
CCOC(=O)c1c(N)sc2c1CCN(CCc1ccccc1)C2 | none | none | none
O=C(CC1CCS(=O)(=O)CC1)N1CCC2(CC1)OCCCC2O (stereo unspecified) | none | none | none
C=CCC1(CO)CCCN(CCS(C)(=O)=O)C1 (stereo unspecified) | none | none | none
CCc1cccc(OC2CN(C(=O)C(O)C(C)C)C2)c1 (stereo unspecified) | none | none | none
CCOC(=O)c1sc(N)c(C(=O)Nc2ccc(C)c(C)c2)c1C | none | none | none
O=c1c(O)c(-c2ccc(O)c(O)c2)oc2cc(O)cc(O)c12 | none | none | none
COCC1=C(C(=O)OC)C(c2ccc(F)c(Br)c2)C(C#N)=C(N)O1 (stereo unspecified) | none | none | none
O=C(N[C@H]1CCNC1)c1ccc(S(=O)(=O)NC2CCOCC2)cc1 | none | none | none
Cc1ccc2nc(C)cc(C(=O)N[C@H]3Cc4ccccc4[C@@H]3N)c2c1 | none | none | none
Cc1nc2ccc(NC(=O)NCCOCCO)cc2nc1C | none | none | none
CCCCOC(=O)c1c(N)n(-c2ccc(C(=O)OCC)cc2)c2nc3ccccc3nc12 | none | none | none
Cc1noc(-c2cccnc2NCc2ccccn2)n1 | none | - | none
CC1(C)N=C(N)N=C(N)N1c1cccc(CN)c1.CCS(=O)(=O)O | none | none | none
NC(CSC1(c2cccc3ccccc23)c2ccccc2-c2ccccc21)C(=O)O (stereo unspecified) | none | none | none
COC[C@H](C)NCCC(=O)Nc1ccc(OC)cc1C | none | none | none
Cn1nccc1CCC(=O)N[C@H]1CC[C@@H](N)CC1 | none | none | none
CC12CC3CC(C)(C1)CC(C(=O)NCCN1CCC(CO)CC1)(C3)C2 | none | none | none
Cc1nn(C(=O)c2ccc3c(c2)OCO3)c(N)c1-c1ccccc1 | none | none | none
c1ccn2c(CCCn3ccnc3-c3cc4n(n3)CCCNC4)nnc2c1 | none | none | none
Nc1ccc2nc3n(c(=O)c2c1)CCCC3 | none | none | none